From article PMC2860244
These are yes or no findings as the source states them, for the method shown. Binding seen in cells or lysates may run through a third protein. Some binding calls cover weakened binding; strength is not graded here.

The chains behind the UniProt entries cited, without tags or fusion partners.
UniProt P20263: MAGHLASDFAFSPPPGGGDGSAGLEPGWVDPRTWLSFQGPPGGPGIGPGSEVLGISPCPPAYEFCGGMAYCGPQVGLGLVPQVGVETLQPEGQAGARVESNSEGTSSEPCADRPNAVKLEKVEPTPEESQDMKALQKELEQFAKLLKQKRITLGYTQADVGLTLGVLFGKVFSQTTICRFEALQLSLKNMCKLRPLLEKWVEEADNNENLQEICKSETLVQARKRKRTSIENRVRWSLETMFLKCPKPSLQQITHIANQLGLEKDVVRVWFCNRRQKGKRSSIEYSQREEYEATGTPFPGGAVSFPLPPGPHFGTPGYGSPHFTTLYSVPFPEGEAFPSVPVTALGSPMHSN
UniProt P11103: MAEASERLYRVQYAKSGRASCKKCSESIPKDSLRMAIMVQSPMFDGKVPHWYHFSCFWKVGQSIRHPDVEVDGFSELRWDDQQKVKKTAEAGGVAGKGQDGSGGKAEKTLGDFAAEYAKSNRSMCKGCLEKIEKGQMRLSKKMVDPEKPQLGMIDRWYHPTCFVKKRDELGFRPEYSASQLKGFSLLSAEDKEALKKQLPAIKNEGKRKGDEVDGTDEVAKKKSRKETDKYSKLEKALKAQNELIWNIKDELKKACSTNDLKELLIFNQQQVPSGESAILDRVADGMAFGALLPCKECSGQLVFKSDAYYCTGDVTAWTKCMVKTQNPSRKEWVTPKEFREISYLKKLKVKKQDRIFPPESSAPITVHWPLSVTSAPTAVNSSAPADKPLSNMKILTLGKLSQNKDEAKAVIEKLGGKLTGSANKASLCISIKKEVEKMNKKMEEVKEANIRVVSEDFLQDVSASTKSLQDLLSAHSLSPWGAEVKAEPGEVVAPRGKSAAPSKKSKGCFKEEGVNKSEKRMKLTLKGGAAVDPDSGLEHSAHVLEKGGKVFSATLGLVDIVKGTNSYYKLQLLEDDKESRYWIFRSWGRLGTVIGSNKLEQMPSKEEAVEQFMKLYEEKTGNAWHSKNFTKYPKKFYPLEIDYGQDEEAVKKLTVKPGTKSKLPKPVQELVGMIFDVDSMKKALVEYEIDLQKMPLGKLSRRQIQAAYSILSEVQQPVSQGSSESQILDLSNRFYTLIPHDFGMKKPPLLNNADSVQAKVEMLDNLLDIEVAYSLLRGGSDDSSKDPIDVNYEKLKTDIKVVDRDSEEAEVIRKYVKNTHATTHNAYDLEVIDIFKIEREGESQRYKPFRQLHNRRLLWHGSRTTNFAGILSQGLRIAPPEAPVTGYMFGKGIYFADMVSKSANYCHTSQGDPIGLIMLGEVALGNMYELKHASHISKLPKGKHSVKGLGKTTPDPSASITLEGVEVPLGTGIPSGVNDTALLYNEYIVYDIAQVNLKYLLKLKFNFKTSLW

Molecular target: endogenous Oct4 (mouse (endogenous in E14 ESCs)) (UniProt P20263)
Test: co-IP; Oct4 immunoprecipitated with an Oct4 antibody on Dynal-Protein G beads, in the presence or absence of benzonase; Western blot for Parp1

binding: binds
Substance: Parp1 (from UniProt P11103 1-1013)
